We go through one substance from publication PMC10683620.

Amino acid sequences for entries named in this document (tags omitted).
UniProt Q96GD4: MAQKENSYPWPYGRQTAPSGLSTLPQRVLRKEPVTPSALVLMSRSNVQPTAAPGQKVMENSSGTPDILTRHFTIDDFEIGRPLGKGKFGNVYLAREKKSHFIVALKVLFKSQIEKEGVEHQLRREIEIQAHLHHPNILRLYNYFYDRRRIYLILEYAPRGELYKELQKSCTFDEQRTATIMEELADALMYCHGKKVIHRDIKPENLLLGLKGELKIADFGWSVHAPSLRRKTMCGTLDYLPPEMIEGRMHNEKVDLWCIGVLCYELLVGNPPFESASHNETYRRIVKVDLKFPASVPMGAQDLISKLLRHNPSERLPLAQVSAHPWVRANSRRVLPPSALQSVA

The target of the test is T1, Kinesin-like protein KIFC1 (human (endogenous in EC109)) (UniProt Q9BW19).
T1 sequence: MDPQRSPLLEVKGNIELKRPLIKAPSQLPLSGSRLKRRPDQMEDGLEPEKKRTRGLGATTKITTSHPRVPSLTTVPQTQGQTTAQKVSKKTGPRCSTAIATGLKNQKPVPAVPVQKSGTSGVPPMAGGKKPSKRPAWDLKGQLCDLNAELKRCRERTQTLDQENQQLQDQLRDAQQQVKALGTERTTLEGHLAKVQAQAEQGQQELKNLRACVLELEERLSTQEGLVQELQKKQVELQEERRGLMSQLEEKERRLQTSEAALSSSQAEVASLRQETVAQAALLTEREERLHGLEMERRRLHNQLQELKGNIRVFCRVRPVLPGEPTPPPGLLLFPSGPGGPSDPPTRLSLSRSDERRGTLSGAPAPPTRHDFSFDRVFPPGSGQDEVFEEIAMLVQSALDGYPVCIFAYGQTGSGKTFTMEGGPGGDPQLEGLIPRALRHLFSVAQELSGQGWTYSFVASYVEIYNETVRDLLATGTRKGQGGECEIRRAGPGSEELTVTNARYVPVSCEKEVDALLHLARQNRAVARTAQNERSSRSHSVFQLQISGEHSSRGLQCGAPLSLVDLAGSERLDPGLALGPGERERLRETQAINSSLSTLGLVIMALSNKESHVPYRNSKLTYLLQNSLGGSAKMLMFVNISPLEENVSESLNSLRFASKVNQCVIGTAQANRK
The test is described as follows: co-IP; Immunoprecipitation with anti KIFC1 antibody, Aurora B detected by western blot; metaphase cells compared with other cells. In general terms: A western blot detects proteins with antibodies after separation by electrophoresis.

These are yes or no findings as the source states them, for the method shown. In cells and extracts the contact can be indirect. Some binding calls cover weakened binding; strength is not graded here.

On to “Aurora B kinase (from UniProt Q96GD4 1-344) (enzyme)”, for which the binding entry is “binds”.
